# Assay results: publication PMC12317982
# Chains of the proteins cited; added tags and fusions are not shown.
# UniProt Q99720: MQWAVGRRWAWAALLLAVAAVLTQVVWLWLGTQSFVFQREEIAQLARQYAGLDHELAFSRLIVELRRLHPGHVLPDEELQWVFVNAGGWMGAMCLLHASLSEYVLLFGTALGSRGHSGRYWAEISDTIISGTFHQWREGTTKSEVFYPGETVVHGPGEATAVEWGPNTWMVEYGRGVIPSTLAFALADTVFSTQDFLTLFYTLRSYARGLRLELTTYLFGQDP
# UniProt Q01650: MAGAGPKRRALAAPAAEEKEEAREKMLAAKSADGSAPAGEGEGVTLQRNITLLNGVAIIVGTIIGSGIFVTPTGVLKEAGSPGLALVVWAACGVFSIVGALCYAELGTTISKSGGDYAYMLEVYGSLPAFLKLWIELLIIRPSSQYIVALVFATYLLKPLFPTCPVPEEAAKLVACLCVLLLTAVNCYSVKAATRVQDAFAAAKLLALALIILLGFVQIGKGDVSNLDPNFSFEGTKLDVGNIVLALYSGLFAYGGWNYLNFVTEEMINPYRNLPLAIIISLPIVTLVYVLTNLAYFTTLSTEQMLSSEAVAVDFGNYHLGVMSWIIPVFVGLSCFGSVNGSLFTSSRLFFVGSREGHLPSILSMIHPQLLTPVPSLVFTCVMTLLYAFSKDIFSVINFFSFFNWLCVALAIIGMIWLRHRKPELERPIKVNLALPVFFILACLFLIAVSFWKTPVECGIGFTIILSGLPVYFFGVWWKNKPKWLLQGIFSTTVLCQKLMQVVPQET
# Results are given in words; binding and its absence hold for the method and conditions named. In cells and extracts the contact can be indirect. Some entries that bind do so weakly or less than the wild type. For part of these data: Tags and fused reporters may be left off the sequences shown.
# Key:
# [1] = target: T1, EMC1-FLAG (human) (UniProt Q8N766); test: co-IP; IP against FLAG (EMC1), immunoblot against Strep (clients), normalised to EMC1 wt
# T1 sequence: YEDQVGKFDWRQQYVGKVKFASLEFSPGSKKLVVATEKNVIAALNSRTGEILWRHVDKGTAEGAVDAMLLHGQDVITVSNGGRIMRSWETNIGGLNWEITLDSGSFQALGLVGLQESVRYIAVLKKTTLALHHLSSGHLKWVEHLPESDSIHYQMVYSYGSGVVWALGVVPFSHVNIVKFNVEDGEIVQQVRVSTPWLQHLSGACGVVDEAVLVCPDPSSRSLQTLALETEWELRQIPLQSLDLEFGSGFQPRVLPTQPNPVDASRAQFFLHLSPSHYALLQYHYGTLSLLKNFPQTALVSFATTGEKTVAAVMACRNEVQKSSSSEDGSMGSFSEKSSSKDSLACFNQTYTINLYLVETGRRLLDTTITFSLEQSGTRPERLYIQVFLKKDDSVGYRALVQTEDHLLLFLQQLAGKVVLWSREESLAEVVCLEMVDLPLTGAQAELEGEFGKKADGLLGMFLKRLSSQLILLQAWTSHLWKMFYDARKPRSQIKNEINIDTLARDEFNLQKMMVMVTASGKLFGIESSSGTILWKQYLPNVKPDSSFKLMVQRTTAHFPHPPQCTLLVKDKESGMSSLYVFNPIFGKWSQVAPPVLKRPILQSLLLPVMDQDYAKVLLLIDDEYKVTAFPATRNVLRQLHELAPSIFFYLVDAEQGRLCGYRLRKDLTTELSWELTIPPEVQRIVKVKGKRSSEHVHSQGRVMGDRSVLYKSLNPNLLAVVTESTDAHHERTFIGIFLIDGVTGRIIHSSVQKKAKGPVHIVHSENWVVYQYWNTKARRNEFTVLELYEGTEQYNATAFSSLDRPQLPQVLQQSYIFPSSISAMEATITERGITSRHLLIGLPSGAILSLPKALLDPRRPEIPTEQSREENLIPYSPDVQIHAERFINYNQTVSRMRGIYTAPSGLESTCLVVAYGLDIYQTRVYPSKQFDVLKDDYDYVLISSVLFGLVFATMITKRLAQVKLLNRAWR
# [2] = target: the fraction of SLC3A2 bound to EMC1 (EMC1-bound SLC3A2, isolated by sequential co-IP) (UniProt P08195); test: co-IP; sequential co-IP: Strep (SLC3A2) then FLAG (EMC1), or the reverse order; native elution with desthiobiotin or FLAG peptide between the steps
# [3] = target: T1, EMC1-FLAG (human); test: as above
# [4] = target: SLC3A2, Strep-tagged (UniProt P08195); test: as above
binding [1],binding [2],binding [3],binding [4],Substance
binds,–,–,–,"SIGMAR1, Strep-tagged (from UniProt Q99720 1-223)"
–,no binding,no binding,binds,"SLC7A5, endogenous (from UniProt Q01650 1-507)"
binds,–,binds,–,"SLC3A2, Strep-tagged (from UniProt P08195 1-529)"
